Reference: publication PMC12196045

Target: T1, OmpR-N6His (Xenorhabdus nematophila YL001) (UniProt D3VF01)
T1 sequence (looked up, limits assumed): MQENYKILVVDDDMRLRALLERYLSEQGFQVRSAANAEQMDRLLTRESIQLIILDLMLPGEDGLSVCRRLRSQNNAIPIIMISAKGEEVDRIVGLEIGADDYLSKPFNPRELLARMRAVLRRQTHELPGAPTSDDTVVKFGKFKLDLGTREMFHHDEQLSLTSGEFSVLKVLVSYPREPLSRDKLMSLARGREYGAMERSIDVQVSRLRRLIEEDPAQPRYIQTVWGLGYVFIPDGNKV
Experiment: EMSA
Settings: 10 mM Mg2+, EMSA: 5x buffer 250 mM Tris, 250 mM KCl, 0.5 mM DTT, 50 mM MgCl2, 25% glycerol, pH 8.0 (1x: 50 mM Tris, 50 mM KCl, 0.1 mM DTT, 10 mM MgCl2, 5% glycerol), recombinant protein, protein details: N-terminal His6 (pET28a NdeI/BamHI), probe letters rebuilt from the primers and the genome

| Sequence | binding result (LPAP named in legend) | binding result (LPAP (lithium potassium acetyl phosphate) named in legend) |
| --- | --- | --- |
| TACGTCTCGTAACGCTTCATTTTTTGTGTTCTTCTTTCTTAAAACTATATTGTTTTTTATTGCACTCATTCATTTTAATCGAGAAATTATCTGTATTTATGATTGTTTATCTTTTTACTTGTATGATGCAAGTGGAAATCTATTAATTATGACGCCAACTTAATTTATATTCTAATGTCAATAAAAATCACTATATAAATATATGGGAGTAATGAGCTTTTTGTGAAAAGCAATTAACCCATAGGTTATATTGATTTTTTCTGATGTTAATGTTTTGTCGATATTTTTAATTTTAAGTTAAATGGTTATGTATTTAATCGATTTCAATATGGAACACGACAGCAAGAAAATGACAAACTTACAATATTTATAACGAAAGTATGGAAATAATTGAATTTTGCTGACTCGATTTATGAATTACTTTTTACGTGTTTTTGAAACATGGCCATTTCATTAATATAAATTCGATGTTATCGGAACAGTATTGGGCATTTTTTACGATTATTACAATGAAACTCCTTAAACCTTGATAGTGAAATTGCATCAAGCATAGGTAGTGTCTGCTCTTCACCAAAACGAG (double strand) [PxcnA580] | no binding |  |
| TTGTTATTACCTCATTGGTGTTATTTAGACACTTATGTTACTGCCAGAAACAGAACACTAAAAATTTTTGGAACTATTTTCGGGTATCGCGTGTCTTATTAATTGGCGACCAGTGTTCCATTGGTAATGAATTTTATCTACCCTCAAAATGCTACAAAAGTACAAAATCAGTAACAAAGTGAAAATAGATGTTTCAAAATGTAAATAACAGGGAACTTTTTTCGTTCAATTTCTATTGAAAAATGAAAAAAGCCAACTTTCGTCGGCTTTTCAGAGGATTAAATTTAGCTTATTTATTGAGCTGATTCA (double strand) [PopnP309] |  | binds |

For at least one entry, the source does not settle the construct or the ends of the probe. No signal at the amounts used counts as a negative. Where a protein sequence is shown, tags need not be part of it.
